Where two headings read alike, the source gives them in different places. No constants are given. Whether binding was seen depends on the method and setting. Binding seen in cells or lysates may run through a third protein. Here binding means that the protein was enriched with, or labelled near, the bait; the list need not be complete.

Protein sequences, listed by entry. Tags and fused reporters are not part of them. Residues count along the entry.
UniProt P39060, residues 24-1754: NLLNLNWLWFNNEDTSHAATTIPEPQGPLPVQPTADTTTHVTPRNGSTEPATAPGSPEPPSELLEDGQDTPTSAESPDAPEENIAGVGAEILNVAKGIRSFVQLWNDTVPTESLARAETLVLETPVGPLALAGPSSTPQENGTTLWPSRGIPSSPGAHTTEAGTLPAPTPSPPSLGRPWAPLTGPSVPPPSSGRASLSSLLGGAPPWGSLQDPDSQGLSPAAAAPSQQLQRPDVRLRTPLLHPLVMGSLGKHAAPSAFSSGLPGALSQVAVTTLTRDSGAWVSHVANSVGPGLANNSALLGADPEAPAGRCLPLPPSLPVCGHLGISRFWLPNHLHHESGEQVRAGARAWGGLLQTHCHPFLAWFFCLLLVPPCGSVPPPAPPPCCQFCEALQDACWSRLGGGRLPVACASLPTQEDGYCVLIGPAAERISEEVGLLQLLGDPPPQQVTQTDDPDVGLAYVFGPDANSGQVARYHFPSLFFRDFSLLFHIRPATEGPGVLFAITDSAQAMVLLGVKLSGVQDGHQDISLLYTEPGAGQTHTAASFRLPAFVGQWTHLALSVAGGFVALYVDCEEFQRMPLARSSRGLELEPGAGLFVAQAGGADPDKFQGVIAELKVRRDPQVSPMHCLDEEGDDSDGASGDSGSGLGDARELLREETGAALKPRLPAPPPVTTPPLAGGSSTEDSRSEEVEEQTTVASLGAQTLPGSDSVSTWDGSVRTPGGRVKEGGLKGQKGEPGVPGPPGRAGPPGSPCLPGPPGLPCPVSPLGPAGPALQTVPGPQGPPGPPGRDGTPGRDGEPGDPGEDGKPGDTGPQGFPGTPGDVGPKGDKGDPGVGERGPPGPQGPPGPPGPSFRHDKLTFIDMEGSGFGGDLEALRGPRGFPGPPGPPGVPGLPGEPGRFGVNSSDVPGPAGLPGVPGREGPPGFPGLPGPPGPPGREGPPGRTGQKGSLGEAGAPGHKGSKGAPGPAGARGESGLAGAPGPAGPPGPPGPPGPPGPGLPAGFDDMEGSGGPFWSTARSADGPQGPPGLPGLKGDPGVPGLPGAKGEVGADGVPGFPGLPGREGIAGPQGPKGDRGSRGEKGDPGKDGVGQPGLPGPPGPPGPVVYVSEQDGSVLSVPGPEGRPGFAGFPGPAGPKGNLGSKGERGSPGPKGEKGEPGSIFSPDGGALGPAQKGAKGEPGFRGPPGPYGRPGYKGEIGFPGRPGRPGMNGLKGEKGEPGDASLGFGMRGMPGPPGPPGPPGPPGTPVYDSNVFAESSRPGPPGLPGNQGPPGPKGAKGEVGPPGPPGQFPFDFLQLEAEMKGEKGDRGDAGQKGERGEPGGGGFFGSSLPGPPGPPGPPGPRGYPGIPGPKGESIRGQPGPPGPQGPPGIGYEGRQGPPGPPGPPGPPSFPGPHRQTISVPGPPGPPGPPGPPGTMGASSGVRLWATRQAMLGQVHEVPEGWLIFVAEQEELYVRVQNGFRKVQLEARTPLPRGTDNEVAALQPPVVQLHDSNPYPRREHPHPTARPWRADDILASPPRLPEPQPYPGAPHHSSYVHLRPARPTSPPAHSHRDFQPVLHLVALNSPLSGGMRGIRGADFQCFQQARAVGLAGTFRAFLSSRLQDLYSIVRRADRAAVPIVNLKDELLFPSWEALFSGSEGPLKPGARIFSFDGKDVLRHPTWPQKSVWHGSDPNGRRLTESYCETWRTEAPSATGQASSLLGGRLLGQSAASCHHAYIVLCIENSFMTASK

Test [1] deals with T1, SPINK1-UltraID (human) (UniProt P00995).
T1 sequence: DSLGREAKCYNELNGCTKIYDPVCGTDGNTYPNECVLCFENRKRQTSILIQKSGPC
The experiment in a line: proximity labelling.

Test [2] has as its target T1, SPINK1-UltraID (human). Nature of the test: proximity labelling. This is another data set of the same source.

COL18A1 (from UniProt P39060 24-1754): the binding result in the test with SPINK1-UltraID (human) [1] and with SPINK1-UltraID (human) [2] was “binds” each time.

The values are drawn from article doi:10.1101/2025.03.03.641251.
